The values below come from PMC9772228, “Structure of a RecT/Redβ family recombinase in complex with a duplex intermediate of DNA annealing”.

In the series the target is T1, LiRecT K191A/F194A (Listeria innocua CLIP 11262) (UniProt Q92FL9).
T1 sequence (looked up): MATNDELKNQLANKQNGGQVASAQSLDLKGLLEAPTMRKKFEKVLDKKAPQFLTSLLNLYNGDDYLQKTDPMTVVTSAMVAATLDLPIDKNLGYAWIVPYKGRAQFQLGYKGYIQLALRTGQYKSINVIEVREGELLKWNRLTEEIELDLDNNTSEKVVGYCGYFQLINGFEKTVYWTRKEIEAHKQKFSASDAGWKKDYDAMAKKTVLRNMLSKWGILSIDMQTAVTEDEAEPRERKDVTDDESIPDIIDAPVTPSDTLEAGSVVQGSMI
The series can be described thus: EMSA. The conditions noted are these: EMSA: PBS pH 7.4 (or KH2PO4/10 mM MgCl2 pH 6.0), 3.6 or 5 uM protein, 25 uM nt DNA, 37 C 15 min per strand, 0.8% agarose 1x TBE; recombinant protein; residues 1-271; protein details: N-terminal 6His vector tag (20 aa) retained; label: 5'-Cy3,5'-Cy5.

The comparison behind a weaker result is the experiment's own reference, which may not be listed here. Tags and fusion partners may be left off the protein sequences shown.

Take “GCGGATGGCTTAGAGCAGAATCGCCCTGCATAGCTCGATTTTTGCGGATG / CCATCCGCAAAAATCGAGCTATGCAGGGCGATTCTGCTCTAAGCCATCCG [50-mer duplex intermediate (sequential addition)]”: the binding result is on record as “binds more weakly”.
